Source: publication PMC3274541
Where a chain is given by its changes, count along the chain named. These are yes or no findings as the source states them, for the method shown. Binding seen in cells or lysates may run through a third protein. Some entries that bind do so weakly or less than the wild type. For part of these data: Where a sequence is shown, tags or fusion partners need not be part of it.

The chains behind the UniProt entries cited, without tags or fusion partners. Where a name states a change or a piece, a line headed by the entry shows the natural chain unless it says otherwise. A line that says so, or that is headed by a name, gives the form on record, which may keep a tag or linker.
NUB1-FLAG (NEDD8 ultimate buster-1) (Q9Y5A7-2, form named): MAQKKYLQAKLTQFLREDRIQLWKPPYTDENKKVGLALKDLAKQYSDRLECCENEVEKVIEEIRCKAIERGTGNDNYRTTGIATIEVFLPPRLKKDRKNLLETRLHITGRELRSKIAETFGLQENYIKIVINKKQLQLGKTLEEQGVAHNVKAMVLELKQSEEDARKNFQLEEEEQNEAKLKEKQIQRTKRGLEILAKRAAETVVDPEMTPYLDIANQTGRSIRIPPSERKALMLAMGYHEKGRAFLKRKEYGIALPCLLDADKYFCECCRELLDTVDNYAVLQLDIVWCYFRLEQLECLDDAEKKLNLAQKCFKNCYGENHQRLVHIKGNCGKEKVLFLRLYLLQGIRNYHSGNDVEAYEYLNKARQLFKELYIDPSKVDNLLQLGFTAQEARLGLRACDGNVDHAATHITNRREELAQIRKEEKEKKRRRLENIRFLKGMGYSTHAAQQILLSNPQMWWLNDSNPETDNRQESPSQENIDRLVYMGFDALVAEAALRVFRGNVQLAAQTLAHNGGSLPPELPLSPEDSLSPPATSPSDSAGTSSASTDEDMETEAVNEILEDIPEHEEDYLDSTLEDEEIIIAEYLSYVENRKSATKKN
UniProt O15205: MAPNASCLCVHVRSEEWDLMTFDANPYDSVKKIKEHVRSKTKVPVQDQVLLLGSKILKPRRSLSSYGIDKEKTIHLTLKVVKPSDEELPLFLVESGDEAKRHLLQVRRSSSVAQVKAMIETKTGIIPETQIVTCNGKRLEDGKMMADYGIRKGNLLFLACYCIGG

Tests used:
GST-AIPL1 = target: T1, GST-AIPL1 (UniProt Q9NZN9); assay: pull-down; 0.38 nmol GST or GST-AIPL1 with GST-pre-cleared lysate of HA-FAT10-transfected SK-N-SH cells, 4°C overnight; Glutathione-Sepharose 4B, washes in ice-cold PBS; western blot; only the target purified
T1 sequence: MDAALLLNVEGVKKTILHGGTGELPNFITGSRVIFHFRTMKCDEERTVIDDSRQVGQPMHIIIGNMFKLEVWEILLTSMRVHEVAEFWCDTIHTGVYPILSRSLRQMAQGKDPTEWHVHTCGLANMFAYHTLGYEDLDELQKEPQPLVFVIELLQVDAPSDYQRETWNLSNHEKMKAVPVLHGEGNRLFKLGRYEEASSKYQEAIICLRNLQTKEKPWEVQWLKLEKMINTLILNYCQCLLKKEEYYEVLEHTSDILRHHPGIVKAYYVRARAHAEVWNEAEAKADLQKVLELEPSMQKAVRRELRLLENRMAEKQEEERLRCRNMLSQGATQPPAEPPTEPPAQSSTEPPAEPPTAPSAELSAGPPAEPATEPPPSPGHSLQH

[1] = target: T2, Myc-AIPL1 (aryl hydrocarbon receptor interacting protein-like 1), wild type (UniProt Q9NZN9); assay: co-IP; SK-N-SH cells co-transfected; lysed in DM buffer (1% n-dodecyl-β-D-maltoside, 10 mM EDTA, protease inhibitors in PBS); 2 µl antibody 2 h at 4°C, Protein G Sepharose overnight at 4°C, 5 washes; western blot; with or without 50 µM MG132 for 4 h
T2 sequence: T1 sequence

[2] = target: NUB1-FLAG (NEDD8 ultimate buster-1) (UniProt Q9Y5A7); assay: as above
HA-FAT10 = HA-FAT10 (UniProt O15205); assay: as above
Myc-AIPL1 G262S = target: T3, Myc-AIPL1 G262S (UniProt Q9NZN9); assay: as above
T3 sequence: T1 sequence with G262S

Measured: binding

HA-FAT10 (from UniProt O15205 1-165)
binds: GST-AIPL1 | [1] | [2]

NUB1-FLAG (NEDD8 ultimate buster-1) (from UniProt Q9Y5A7-2 1-601)
binds: HA-FAT10 | [1] | Myc-AIPL1 G262S
